Reference: publication PMC3506444
Results are given in words; binding and its absence hold for the method and conditions named. Some entries that bind do so weakly or less than the wild type.

By UniProt entry, the sequences of proteins in these tests, tags left out. Residues count along the entry.
UniProt P12314, residues 16-374: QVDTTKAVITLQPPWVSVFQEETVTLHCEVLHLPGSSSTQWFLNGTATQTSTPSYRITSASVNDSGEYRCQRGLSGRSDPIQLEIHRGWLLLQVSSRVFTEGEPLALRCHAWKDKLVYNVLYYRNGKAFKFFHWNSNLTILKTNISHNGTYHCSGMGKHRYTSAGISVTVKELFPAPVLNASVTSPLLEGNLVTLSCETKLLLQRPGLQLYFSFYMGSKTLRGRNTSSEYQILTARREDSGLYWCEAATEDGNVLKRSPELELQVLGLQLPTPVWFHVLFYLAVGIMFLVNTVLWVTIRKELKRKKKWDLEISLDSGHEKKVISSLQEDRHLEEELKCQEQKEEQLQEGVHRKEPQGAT
UniProt P12318, residues 34-317: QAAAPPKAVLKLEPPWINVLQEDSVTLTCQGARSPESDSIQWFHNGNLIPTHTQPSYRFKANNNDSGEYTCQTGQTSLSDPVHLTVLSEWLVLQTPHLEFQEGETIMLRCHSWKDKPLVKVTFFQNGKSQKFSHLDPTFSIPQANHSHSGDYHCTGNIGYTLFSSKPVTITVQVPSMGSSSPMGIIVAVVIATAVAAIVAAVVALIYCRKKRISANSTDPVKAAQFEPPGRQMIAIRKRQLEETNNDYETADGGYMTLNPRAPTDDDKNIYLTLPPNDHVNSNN

How the values were obtained:
[1] = biological target: FcγRIA (UniProt P12314); assay: flow cytometry on cells; 293FT cells transfected with FcγRIA or FcγRIIA, incubated with CRP alone (up to 10 μg/ml) for 30 min at room temperature in DMEM; cell-bound CRP labelled with anti-CRP mouse IgG (clone CRP-8) and FITC goat anti-mouse; non-specific binding from mock-transfected cells; Kd and Bmax by PRISM; only the binder purified
[2] = biological target: FcγRIIA (UniProt P12318); assay: as above
[3] = biological target: FcγRIA (UniProt P12314); assay: flow cytometry on cells; as a1, but with the CRP-LPC complex (CRP preincubated with lysophosphatidylcholine, 1:1 w:w) instead of CRP alone, up to 10 μg/ml, 30 min at room temperature; non-specific binding from mock-transfected cells; Kd and Bmax by PRISM; only the binder purified
[4] = biological target: FcγRIIA (UniProt P12318); assay: as above

Measured: binding

B1: human recombinant C-reactive protein (protein, UniProt P02741-1 19-224)
chain: QTDMSRKAFVFPKESDTSYVSLKAPLTKPLKAFTVCLHFYTELSSTRGYSIFSYATKRQDNEILIFWSKDIGYSFTVGGSEILFEVPEVTVAPVHICTSWESASGIVEFWVDGKPRVRKSLKKGYTVGAEASIILGQEQDSFGGNFEGSQSLVGDIGNVNMWDFVLSPDEINTIYLGGPFSPNVLNWRALKYEVQGEVFTKPQLWP
binds: all assays above
